Where a name gives a salt, the structure may show the parent alone. This is one part of the list. Hit calls seldom repeat between salt and free forms of one compound.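 Kinases were expressed as nanoluciferase fusions in K562 cells and luminescence was read every 4 h between 2 and 18 h as percent of control, DMSO set to 100% and a positive control to 0%. A time point counts as decreased when the signal drops significantly (2 sigma). The hit call is the authors' own, does not follow from the count of time points alone, and its rule is not shown.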
Columns and labels:
Assay in all cases: kinase-Nluc reporter destabilization hit call (1 = scored as downregulated) (binary); higher = compound decreases kinase abundance
Conditions in all cases: K562; 2-18 h
RET = RET (UniProt P07949)
[1] = target: RET_M918T (clone: RET_mut) (UniProt P07949)
RIOK1 = RIOK1 (UniProt Q9BRS2)
RIPK1 = RIPK1 (UniProt Q13546)
RIPK2 = RIPK2 (UniProt O43353)
ROR2 = ROR2 (UniProt Q01974)
RPS6KA1 = RPS6KA1 (UniProt Q15418)
SPHK1 = SPHK1 (UniProt Q9NYA1)
SRC = SRC (UniProt P12931)
STK24 = STK24 (UniProt Q9Y6E0)

Sequences of proteins named here, by UniProt entry; tags and fusion partners are left off. A change or cut given only in a name is not applied to a line headed by its entry.
UniProt P07949, whole entry, looked up: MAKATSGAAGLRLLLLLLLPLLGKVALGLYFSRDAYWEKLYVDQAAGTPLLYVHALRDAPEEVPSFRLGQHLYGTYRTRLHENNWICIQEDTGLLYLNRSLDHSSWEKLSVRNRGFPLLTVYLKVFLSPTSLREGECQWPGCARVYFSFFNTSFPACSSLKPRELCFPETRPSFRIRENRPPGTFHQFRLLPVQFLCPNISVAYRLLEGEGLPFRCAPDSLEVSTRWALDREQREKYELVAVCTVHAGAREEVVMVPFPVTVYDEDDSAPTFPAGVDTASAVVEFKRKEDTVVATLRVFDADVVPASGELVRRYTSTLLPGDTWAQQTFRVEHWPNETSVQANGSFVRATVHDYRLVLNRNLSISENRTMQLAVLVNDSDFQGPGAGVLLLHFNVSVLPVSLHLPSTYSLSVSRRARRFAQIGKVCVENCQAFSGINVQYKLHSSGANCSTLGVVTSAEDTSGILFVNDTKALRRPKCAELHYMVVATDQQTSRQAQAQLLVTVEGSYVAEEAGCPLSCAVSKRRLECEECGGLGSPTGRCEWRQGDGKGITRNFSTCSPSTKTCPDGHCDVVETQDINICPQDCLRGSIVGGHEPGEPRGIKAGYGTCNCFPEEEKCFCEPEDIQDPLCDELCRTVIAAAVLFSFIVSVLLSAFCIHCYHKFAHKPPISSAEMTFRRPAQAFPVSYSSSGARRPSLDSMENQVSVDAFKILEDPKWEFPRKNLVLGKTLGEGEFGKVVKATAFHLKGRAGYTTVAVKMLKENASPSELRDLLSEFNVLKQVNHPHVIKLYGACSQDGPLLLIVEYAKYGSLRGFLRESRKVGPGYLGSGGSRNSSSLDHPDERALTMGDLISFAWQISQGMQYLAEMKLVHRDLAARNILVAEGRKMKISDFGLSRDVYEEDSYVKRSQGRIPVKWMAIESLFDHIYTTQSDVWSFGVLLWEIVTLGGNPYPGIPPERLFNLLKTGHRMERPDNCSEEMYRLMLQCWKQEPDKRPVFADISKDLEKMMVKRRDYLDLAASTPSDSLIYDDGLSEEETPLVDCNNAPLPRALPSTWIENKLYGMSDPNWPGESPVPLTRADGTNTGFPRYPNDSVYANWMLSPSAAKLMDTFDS
UniProt P07949, whole entry M918T, looked up: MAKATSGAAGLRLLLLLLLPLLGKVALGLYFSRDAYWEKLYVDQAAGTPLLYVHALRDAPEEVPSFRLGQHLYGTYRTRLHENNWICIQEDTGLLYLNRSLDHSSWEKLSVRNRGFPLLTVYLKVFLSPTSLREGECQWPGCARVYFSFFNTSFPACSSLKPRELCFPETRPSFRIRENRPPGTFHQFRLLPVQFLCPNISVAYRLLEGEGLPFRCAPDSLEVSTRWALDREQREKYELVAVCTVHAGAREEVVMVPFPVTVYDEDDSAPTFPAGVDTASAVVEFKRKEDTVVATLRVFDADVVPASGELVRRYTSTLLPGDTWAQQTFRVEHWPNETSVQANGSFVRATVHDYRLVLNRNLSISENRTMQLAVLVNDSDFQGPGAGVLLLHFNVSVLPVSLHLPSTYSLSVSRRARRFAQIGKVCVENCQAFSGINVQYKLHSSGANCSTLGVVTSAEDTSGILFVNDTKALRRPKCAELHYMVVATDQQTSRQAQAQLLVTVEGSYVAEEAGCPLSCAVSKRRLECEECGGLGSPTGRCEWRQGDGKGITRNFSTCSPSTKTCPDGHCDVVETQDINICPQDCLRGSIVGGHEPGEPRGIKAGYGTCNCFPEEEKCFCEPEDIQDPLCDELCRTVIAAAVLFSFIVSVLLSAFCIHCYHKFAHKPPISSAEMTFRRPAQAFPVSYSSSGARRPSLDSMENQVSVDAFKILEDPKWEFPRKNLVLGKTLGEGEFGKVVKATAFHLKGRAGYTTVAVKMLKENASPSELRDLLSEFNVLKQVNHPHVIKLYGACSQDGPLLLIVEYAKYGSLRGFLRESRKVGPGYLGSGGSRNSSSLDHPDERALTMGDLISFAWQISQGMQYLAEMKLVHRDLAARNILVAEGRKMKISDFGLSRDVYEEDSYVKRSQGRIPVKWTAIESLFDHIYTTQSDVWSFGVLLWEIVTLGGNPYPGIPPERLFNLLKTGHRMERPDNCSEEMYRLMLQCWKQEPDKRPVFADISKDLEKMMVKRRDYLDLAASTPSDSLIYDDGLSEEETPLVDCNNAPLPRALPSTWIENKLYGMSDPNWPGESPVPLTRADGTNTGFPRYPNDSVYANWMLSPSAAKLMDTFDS
UniProt Q9BRS2: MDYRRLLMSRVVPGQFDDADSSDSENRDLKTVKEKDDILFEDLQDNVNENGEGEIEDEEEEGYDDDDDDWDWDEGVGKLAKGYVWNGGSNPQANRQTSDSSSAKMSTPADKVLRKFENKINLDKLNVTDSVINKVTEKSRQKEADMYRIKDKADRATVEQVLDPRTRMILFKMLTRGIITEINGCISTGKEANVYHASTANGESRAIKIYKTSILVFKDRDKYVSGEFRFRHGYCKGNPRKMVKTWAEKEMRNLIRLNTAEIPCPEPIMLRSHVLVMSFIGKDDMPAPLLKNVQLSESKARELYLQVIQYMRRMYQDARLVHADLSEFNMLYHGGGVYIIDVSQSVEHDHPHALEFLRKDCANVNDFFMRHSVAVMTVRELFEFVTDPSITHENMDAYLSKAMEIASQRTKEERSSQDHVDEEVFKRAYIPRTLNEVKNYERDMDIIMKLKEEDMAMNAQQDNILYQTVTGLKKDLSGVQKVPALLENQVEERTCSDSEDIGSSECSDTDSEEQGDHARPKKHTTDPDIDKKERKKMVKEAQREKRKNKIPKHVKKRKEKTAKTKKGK
UniProt Q13546: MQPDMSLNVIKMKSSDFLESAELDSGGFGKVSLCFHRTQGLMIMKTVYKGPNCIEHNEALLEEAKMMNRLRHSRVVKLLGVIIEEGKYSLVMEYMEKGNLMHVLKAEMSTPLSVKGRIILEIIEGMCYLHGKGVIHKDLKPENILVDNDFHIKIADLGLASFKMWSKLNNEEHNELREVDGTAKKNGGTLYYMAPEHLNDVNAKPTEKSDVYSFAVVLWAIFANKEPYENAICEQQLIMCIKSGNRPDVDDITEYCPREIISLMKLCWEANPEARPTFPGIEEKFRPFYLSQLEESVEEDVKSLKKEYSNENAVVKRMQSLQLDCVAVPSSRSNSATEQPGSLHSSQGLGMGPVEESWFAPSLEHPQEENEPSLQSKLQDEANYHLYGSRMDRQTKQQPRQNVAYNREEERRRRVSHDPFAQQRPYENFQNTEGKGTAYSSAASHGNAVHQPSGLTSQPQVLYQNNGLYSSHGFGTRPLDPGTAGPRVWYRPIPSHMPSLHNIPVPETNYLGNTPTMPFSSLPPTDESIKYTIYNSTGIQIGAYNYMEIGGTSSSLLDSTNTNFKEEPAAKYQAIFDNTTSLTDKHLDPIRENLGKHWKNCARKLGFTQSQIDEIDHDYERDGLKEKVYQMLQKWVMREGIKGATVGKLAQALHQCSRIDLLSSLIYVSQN
UniProt Q01974, whole entry: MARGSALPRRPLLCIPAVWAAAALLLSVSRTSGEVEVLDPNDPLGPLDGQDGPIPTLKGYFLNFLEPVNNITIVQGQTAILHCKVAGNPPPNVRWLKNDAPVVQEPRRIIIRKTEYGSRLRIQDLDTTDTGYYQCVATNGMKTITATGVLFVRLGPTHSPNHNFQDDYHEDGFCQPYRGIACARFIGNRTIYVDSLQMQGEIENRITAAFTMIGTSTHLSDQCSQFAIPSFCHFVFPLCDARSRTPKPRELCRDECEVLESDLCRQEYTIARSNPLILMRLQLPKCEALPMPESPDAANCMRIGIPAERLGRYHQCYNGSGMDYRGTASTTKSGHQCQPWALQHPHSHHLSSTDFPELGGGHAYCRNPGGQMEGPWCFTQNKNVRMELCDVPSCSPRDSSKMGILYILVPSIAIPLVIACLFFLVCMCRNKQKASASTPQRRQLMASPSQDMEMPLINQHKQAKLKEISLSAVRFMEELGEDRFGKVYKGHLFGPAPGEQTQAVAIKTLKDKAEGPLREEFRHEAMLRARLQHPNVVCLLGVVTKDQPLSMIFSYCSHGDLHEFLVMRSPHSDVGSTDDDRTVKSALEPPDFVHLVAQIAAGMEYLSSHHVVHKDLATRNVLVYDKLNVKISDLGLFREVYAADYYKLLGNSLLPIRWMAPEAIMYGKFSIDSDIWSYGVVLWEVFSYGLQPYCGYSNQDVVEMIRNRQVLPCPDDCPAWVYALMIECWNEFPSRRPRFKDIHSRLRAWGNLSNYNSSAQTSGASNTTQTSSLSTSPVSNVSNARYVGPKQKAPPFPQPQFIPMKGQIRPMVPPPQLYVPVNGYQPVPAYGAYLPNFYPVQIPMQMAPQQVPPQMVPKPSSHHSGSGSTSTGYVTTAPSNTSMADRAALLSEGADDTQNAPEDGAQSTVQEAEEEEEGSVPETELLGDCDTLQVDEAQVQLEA
UniProt Q15418, whole entry: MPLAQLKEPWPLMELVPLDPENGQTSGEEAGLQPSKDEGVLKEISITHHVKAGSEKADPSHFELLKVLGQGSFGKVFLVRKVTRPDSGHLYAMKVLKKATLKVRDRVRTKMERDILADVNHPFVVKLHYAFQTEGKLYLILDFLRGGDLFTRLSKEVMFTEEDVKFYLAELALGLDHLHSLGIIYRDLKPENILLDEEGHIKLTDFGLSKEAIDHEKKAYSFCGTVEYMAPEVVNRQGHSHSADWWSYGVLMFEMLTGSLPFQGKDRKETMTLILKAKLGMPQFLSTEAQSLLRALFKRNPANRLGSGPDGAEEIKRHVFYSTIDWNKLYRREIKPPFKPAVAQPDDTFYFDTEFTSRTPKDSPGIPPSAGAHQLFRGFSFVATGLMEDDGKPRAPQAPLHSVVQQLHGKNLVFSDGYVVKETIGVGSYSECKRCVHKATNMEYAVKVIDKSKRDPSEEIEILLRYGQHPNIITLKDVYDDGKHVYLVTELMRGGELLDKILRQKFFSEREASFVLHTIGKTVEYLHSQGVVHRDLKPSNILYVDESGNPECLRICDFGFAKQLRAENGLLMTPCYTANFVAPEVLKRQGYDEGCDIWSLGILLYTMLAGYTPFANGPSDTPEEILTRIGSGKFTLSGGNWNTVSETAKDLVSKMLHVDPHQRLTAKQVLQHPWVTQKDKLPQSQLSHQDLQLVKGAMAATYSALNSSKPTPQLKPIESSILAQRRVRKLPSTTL
UniProt Q9NYA1, whole entry: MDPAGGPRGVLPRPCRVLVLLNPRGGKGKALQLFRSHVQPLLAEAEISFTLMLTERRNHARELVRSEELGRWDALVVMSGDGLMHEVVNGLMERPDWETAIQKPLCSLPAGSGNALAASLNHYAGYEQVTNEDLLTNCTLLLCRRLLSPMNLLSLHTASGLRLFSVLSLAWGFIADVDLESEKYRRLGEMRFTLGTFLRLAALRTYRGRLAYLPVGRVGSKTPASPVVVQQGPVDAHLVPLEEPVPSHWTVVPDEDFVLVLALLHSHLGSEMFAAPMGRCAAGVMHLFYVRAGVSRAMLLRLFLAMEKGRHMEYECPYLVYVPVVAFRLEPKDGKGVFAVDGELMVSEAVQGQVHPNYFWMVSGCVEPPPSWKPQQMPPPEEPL
UniProt Q9Y6E0: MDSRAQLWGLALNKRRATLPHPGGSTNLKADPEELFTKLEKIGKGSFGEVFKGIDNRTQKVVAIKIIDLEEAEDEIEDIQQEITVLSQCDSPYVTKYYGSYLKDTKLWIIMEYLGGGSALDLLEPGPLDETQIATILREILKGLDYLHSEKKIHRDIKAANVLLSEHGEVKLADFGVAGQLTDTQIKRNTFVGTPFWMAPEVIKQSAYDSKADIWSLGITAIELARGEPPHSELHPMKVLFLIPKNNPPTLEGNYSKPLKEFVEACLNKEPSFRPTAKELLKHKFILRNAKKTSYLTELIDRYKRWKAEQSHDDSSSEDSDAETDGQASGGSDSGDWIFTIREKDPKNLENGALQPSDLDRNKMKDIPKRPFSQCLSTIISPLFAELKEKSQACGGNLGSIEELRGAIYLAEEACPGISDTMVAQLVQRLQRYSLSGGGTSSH

SMILES | kinase-Nluc reporter destabilization hit call (RET) | kinase-Nluc reporter destabilization hit call [1] | kinase-Nluc reporter destabilization hit call (RIOK1) | kinase-Nluc reporter destabilization hit call (RIPK1) | kinase-Nluc reporter destabilization hit call (RIPK2) | kinase-Nluc reporter destabilization hit call (ROR2) | kinase-Nluc reporter destabilization hit call (RPS6KA1) | kinase-Nluc reporter destabilization hit call (SPHK1) | kinase-Nluc reporter destabilization hit call (SRC) | kinase-Nluc reporter destabilization hit call (STK24)
CCCCNc1nc(N)c2[nH]c(=O)n(Cc3ccc(C)nc3)c2n1 (10 µM) | inactive: 0 | inactive: 0 | inactive: 0 | inactive: 0 | inactive: 0 | inactive: 0 | inactive: 0 | inactive: 0 | inactive: 0 | inactive: 0
O=c1[nH]c2ccccc2n1C1CCN(CCCC(c2ccc(F)cc2)c2ccc(F)cc2)CC1 [Pimozide] (2.5 µM) | inactive: 0 | inactive: 0 | inactive: 0 | inactive: 0 | inactive: 0 | inactive: 0 | inactive: 0 | inactive: 0 | inactive: 0 | inactive: 0
COc1ccc2c(c1)[nH]c1c(C)nccc12 [Harmine] (10 µM) | inactive: 0 | inactive: 0 | inactive: 0 | inactive: 0 | inactive: 0 | inactive: 0 | inactive: 0 | inactive: 0 | inactive: 0 | inactive: 0
CCCS(=O)(=O)Nc1ccc(F)c(-n2cc(-c3cncnc3)c3nc(N(C)C4CCN(CC)CC4)ccc32)c1F (2 µM) | inactive: 0 | inactive: 0 | inactive: 0 | inactive: 0 | inactive: 0 | inactive: 0 | inactive: 0 | inactive: 0 | inactive: 0 | inactive: 0
C/C=C(/C)C(=O)O[C@H]1[C@@H]2[C@H](C)C(=O)O[C@@H]2C[C@@H](C)[C@@H]2C=CC(=O)[C@]21C [Brevilin A] (2.5 µM) | inactive: 0 | inactive: 0 | inactive: 0 | inactive: 0 | inactive: 0 | inactive: 0 | inactive: 0 | inactive: 0 | inactive: 0 | inactive: 0
O=C(O)c1sc2cc(Cl)ccc2c1Cl (10 µM) | inactive: 0 | inactive: 0 | inactive: 0 | inactive: 0 | inactive: 0 | inactive: 0 | inactive: 0 | inactive: 0 | inactive: 0 | inactive: 0
Cn1cc(C2=C(c3cn(C4CCN(Cc5ccccn5)CC4)c4ccccc34)C(=O)NC2=O)c2ccccc21 [Enzastaurin] (10 µM) | inactive: 0 | inactive: 0 | inactive: 0 | inactive: 0 | inactive: 0 | inactive: 0 | inactive: 0 | inactive: 0 | inactive: 0 | inactive: 0
Cc1[nH]ncc1-c1cc2nc([C@H]3CC4CCN3CC4)[nH]c(=O)c2s1 [(R)-Simurosertib] (10 µM) | inactive: 0 | inactive: 0 | inactive: 0 | inactive: 0 | inactive: 0 | inactive: 0 | inactive: 0 | inactive: 0 | inactive: 0 | inactive: 0
O=C(/C=C/c1ccccc1)OC[C@H]1O[C@@H](O[C@@H]2OC=C[C@H]3[C@H](O)[C@@H]4O[C@]4(CO)[C@@H]23)[C@H](O)[C@@H](O)[C@@H]1O [Picroside I] (10 µM) | inactive: 0 | inactive: 0 | inactive: 0 | inactive: 0 | inactive: 0 | inactive: 0 | inactive: 0 | inactive: 0 | inactive: 0 | inactive: 0
COC[C@H]1OC(=O)c2coc3c2[C@@]1(C)C1=C(C3=O)[C@@H]2CCC(=O)[C@@]2(C)C[C@H]1OC(C)=O [Wortmannin] (2.5 µM) | inactive: 0 | inactive: 0 | inactive: 0 | inactive: 0 | inactive: 0 | inactive: 0 | inactive: 0 | inactive: 0 | inactive: 0 | inactive: 0
N#CC(C#N)=Cc1ccc([N+](=O)[O-])c(O)c1 (10 µM) | inactive: 0 | inactive: 0 | inactive: 0 | inactive: 0 | inactive: 0 | inactive: 0 | inactive: 0 | inactive: 0 | inactive: 0 | inactive: 0
Nc1ncnc2c1ncn2[C@@H]1O[C@@H]2COP(O)(=S)O[C@H]2[C@H]1O (stereo not given in full) [Sp-cAMPS (sodium salt)] (10 µM) | inactive: 0 | inactive: 0 | inactive: 0 | inactive: 0 | inactive: 0 | inactive: 0 | inactive: 0 | inactive: 0 | inactive: 0 | inactive: 0
N#CC(C#N)=NNc1cccc(Cl)c1 (2.5 µM) | inactive: 0 | inactive: 0 | inactive: 0 | inactive: 0 | inactive: 0 | inactive: 0 | inactive: 0 | inactive: 0 | inactive: 0 | inactive: 0
C/C(O)=C(\C#N)C(=O)Nc1cc(Br)ccc1Br (10 µM) | inactive: 0 | inactive: 0 | inactive: 0 | inactive: 0 | inactive: 0 | inactive: 0 | inactive: 0 | inactive: 0 | inactive: 0 | inactive: 0
C[C@H](CCC(=O)O)C[C@H](C)C[C@H](C)C(=O)/C=C(\O)[C@H](C)C[C@H](C)C/C=C/[C@@H](C)[C@@H](O)[C@@H](C)[C@@H](O)C[C@@H]1CC[C@@](C)([C@H]2CC[C@@](C)([C@@H](C)O)O2)O1 [Ionomycin (calcium)] (2.5 µM) | inactive: 0 | inactive: 0 | active: 1 | inactive: 0 | inactive: 0 | inactive: 0 | inactive: 0 | inactive: 0 | inactive: 0 | inactive: 0
C=CC(=O)Nc1ccc2[nH]c(=O)n(C3CCN(Cc4ccc(-c5nc6cc[nH]c(=O)c6cc5-c5ccccc5)cc4)CC3)c2c1 [Borussertib] (10 µM) | inactive: 0 | inactive: 0 | inactive: 0 | inactive: 0 | inactive: 0 | inactive: 0 | inactive: 0 | inactive: 0 | inactive: 0 | inactive: 0
O=C1C=CC[C@@H]2[C@H]3CCCN4CCC[C@@H](CN12)[C@@H]34 [Sophocarpine] (10 µM) | inactive: 0 | inactive: 0 | inactive: 0 | inactive: 0 | inactive: 0 | inactive: 0 | inactive: 0 | inactive: 0 | inactive: 0 | inactive: 0
CC(=O)c1c(O)c(C)c(O)c(Cc2c(O)c3c(c(C(=O)/C=C/c4ccccc4)c2O)OC(C)(C)C=C3)c1O [Rottlerin] (2 µM) | inactive: 0 | inactive: 0 | inactive: 0 | inactive: 0 | inactive: 0 | inactive: 0 | inactive: 0 | inactive: 0 | inactive: 0 | inactive: 0
CCN1CCN(C(=O)Cc2ccc(Nc3ncc(F)c(Nc4ccc(C(=O)Nc5ccccc5Cl)cc4)n3)cc2)CC1 (2.5 µM) | inactive: 0 | inactive: 0 | inactive: 0 | inactive: 0 | inactive: 0 | inactive: 0 | inactive: 0 | inactive: 0 | inactive: 0 | inactive: 0
CC(=O)Oc1ccc(/C=C/c2cc(OC(C)=O)cc(OC(C)=O)c2)cc1 [Triacetylresveratrol] (10 µM) | inactive: 0 | inactive: 0 | inactive: 0 | inactive: 0 | inactive: 0 | inactive: 0 | inactive: 0 | inactive: 0 | inactive: 0 | inactive: 0
O=Cc1cn(Cc2ccc(Cl)cc2)c2ccccc12 [Oncrasin-1] (10 µM) | inactive: 0 | inactive: 0 | inactive: 0 | inactive: 0 | inactive: 0 | inactive: 0 | inactive: 0 | inactive: 0 | inactive: 0 | inactive: 0
C=CC(=O)N[C@H]1C=C(C)c2c(-c3cnc4ccccc4c3)c3c(N)ncnc3n2C1 (10 µM) | inactive: 0 | inactive: 0 | inactive: 0 | inactive: 0 | inactive: 0 | inactive: 0 | inactive: 0 | inactive: 0 | inactive: 0 | inactive: 0
O=C1c2ccccc2C(=O)c2c1cccc2-c1cnn(C2CCNCC2)c1 [PDK4-IN-1 (hydrochloride)] (10 µM) | inactive: 0 | inactive: 0 | inactive: 0 | inactive: 0 | inactive: 0 | inactive: 0 | inactive: 0 | inactive: 0 | inactive: 0 | inactive: 0
N#CC(C#N)=Cc1ccc(O)c(O)c1 [Tyrphostin 23] (10 µM) | inactive: 0 | inactive: 0 | inactive: 0 | inactive: 0 | inactive: 0 | inactive: 0 | inactive: 0 | inactive: 0 | inactive: 0 | inactive: 0
C[C@H]1CC[C@]2(NC1)O[C@H]1C[C@H]3[C@@H]4CC[C@H]5C[C@@H](O[C@@H]6O[C@H](CO)[C@H](O[C@@H]7O[C@H](CO)[C@@H](O)[C@H](O[C@@H]8OC[C@@H](O)[C@H](O)[C@H]8O)[C@H]7O[C@@H]7O[C@H](CO)[C@@H](O)[C@H](O)[C@H]7O)[C@H](O)[C@H]6O)CC[C@]5(C)[C@H]4CC[C@]3(C)[C@H]1[C@@H]2C [Tomatine] (2.5 µM) | active: 1 | inactive: 0 | inactive: 0 | inactive: 0 | inactive: 0 | inactive: 0 | inactive: 0 | inactive: 0 | inactive: 0 | inactive: 0
C[S+]([O-])/C=C/CCN=C=S (stereo not given) [Sulforaphene] (10 µM) | inactive: 0 | inactive: 0 | inactive: 0 | inactive: 0 | inactive: 0 | inactive: 0 | inactive: 0 | inactive: 0 | inactive: 0 | inactive: 0
CCCCCCCCCCCCCCCCOC[C@H](COP(=O)([O-])OCC[N+](C)(C)C)OC(C)=O (10 µM) | inactive: 0 | inactive: 0 | inactive: 0 | inactive: 0 | inactive: 0 | inactive: 0 | inactive: 0 | inactive: 0 | inactive: 0 | inactive: 0
C=C[C@H]1CN2CC[C@]3(C(=O)Nc4ccccc43)[C@@H]2C[C@@H]1/C(=C\OC)C(=O)OC [Corynoxeine] (2 µM) | inactive: 0 | inactive: 0 | inactive: 0 | inactive: 0 | inactive: 0 | inactive: 0 | inactive: 0 | inactive: 0 | inactive: 0 | inactive: 0

Record cards, as listed above. Values in the order: kinase-Nluc reporter destabilization hit call (RET) | kinase-Nluc reporter destabilization hit call [1] | kinase-Nluc reporter destabilization hit call (RIOK1) | kinase-Nluc reporter destabilization hit call (RIPK1) | kinase-Nluc reporter destabilization hit call (RIPK2) | kinase-Nluc reporter destabilization hit call (ROR2) | kinase-Nluc reporter destabilization hit call (RPS6KA1) | kinase-Nluc reporter destabilization hit call (SPHK1) | kinase-Nluc reporter destabilization hit call (SRC) | kinase-Nluc reporter destabilization hit call (STK24)
C=CC(=O)N[C@H]1C=C(C)c2c(-c3cnc4ccccc4c3)c3c(N)ncnc3n2C1 (10 µM) as listed: inactive: 0 | inactive: 0 | inactive: 0 | inactive: 0 | inactive: 0 | inactive: 0 | inactive: 0 | inactive: 0 | inactive: 0 | inactive: 0
O=C1C=CC[C@@H]2[C@H]3CCCN4CCC[C@@H](CN12)[C@@H]34 [Sophocarpine] (10 µM) as listed: inactive: 0 | inactive: 0 | inactive: 0 | inactive: 0 | inactive: 0 | inactive: 0 | inactive: 0 | inactive: 0 | inactive: 0 | inactive: 0

— the supplement of paper PMC12823440, “Inhibitors supercharge kinase turnover through native proteolytic circuits” (Nature, 2025)
